# The supplement of paper PMC3682954
# Structures can show the parent of a compound that is named as a salt. ± gives the standard deviation of the averaged measurements. The list shows a part of the results. Many values rest on one well or one pass, so single values are uncertain.
# Test system: RAW 264.7
# Assay: HMGB1-induced TNF-alpha production relative to HMGB1-stimulated control; higher = more TNF-alpha secretion (less inhibition)
# Details: stimulus: HMGB1 5 ug/ml, 18 h
# [1] = compound concentration: 1 ug/ml
SMILES,HMGB1-induced TNF-alpha production (compound concentration: 3 uM),HMGB1-induced TNF-alpha production [1]
N=C(NC(=O)c1nc(Cl)c(N)nc1N)Nc1ccccc1 [Phenamil methanesulfonate],101%,–
N=C(NC(=O)c1nc(Cl)c(N)nc1N)Nc1ccccc1 [Phenamil],82.5%,–
CC[N+](C)(CC)CCOC(=O)C(O)(c1ccccc1)C1CCCCC1 (stereo unspecified),89.9 ± 10%,–
"C/C=C/C(=O)OCC1OC(Oc2cc(O)c3c(=O)cc(-c4ccc(O)c(OC)c4)oc3c2)C(O)C(O)C1O (stereo unspecified) [Thermopsoside, crotonoyl]",–,93.7%
O=C1c2c(O)cccc2Cc2cccc(O)c21 [Anthralin],114%,–
O=C1c2c(O)cccc2Cc2cccc(O)c21,73.9%,–
C#CC(N)CCC(=O)O (stereo unspecified) [gamma-Acetylinic GABA],99.6%,–
O=S(=O)(O)c1cc(N=C=S)ccc1/C=C/c1ccc(N=C=S)cc1S(=O)(=O)O,118%,–
C[Si](C)(C)c1cn([C@H]2C[C@H](O)[C@@H](CO)O2)c(=O)[nH]c1=O [Xylure],–,76.9%
NS(=O)(=O)c1cc2c(cc1Cl)NCNS2(=O)=O,86%,–
NS(=O)(=O)c1cc2c(cc1Cl)NCNS2(=O)=O [Hydrochlorothiazide],81.7 ± 1.1%,–
C[N+]1(C)CCC(=C(c2ccccc2)c2ccccc2)CC1 [Diphemanil methylsulfate],71.8%,–
COc1cc(/C=C/C(=O)O)ccc1O,106%,–
CN(C)CCc1c[nH]c2ccc(C[C@H]3COC(=O)N3)cc12 [Zolmitriptan],111 ± 6%,–
CN(C)CCc1c[nH]c2ccc(C[C@H]3COC(=O)N3)cc12,87.3%,–
CN(C)CCC=C1c2ccccc2C=Cc2ccccc21,87.3%,–
CN(C)CCC=C1c2ccccc2C=Cc2ccccc21 [Cyclobenzaprine hydrochloride],64.8 ± 14%,–
O=c1[nH]c(=O)n([C@H]2C[C@H](O)[C@@H](CO)O2)cc1F,103 ± 5%,–
O=c1[nH]c(=O)n([C@H]2C[C@H](O)[C@@H](CO)O2)cc1F [Floxuridine],98.5 ± 1.1%,–
CNNCc1ccc(C(=O)NC(C)C)cc1,101%,–
CNNCc1ccc(C(=O)NC(C)C)cc1 [Procarbazine],92.2%,–
CNNCc1ccc(C(=O)NC(C)C)cc1 [Procarbazine hydrochloride],125%,–
Nc1ccc(C(=O)Oc2ccccc2)c(O)c1,84%,–
COc1cc(C)c(/C=C/C(C)=C/C=C/C(C)=C/C(=O)O)c(C)c1C [Acitretin],89.4%,–
CC(C)OC(=O)CCC/C=C\C[C@@H]1[C@@H](CC[C@@H](O)CCc2ccccc2)[C@H](O)C[C@@H]1O,88.9%,–
CC(C)OC(=O)CCC/C=C\C[C@@H]1[C@@H](CC[C@@H](O)CCc2ccccc2)[C@H](O)C[C@@H]1O [Latanoprost],103%,–

# Two consecutive records already listed, quoted:
SMILES,HMGB1-induced TNF-alpha production (compound concentration: 3 uM),HMGB1-induced TNF-alpha production [1]
CN(C)CCC=C1c2ccccc2C=Cc2ccccc21,87.3%,–
CN(C)CCC=C1c2ccccc2C=Cc2ccccc21 [Cyclobenzaprine hydrochloride],64.8 ± 14%,–
